Results as given in patent US20110150980A1 (VasoGenix Pharmaceuticals, Inc., priority 2009, published 2011).

Assay: general procedure: Fmoc solid-phase peptide synthesis; Rink amide resin; HBTU/HOBt (0.45 M) and DIEA
Conditions: whole synthesis, analytical HPLC, YMC-Pack ODS C18, 5 micron; MALDI-TOF for mass, acetate

| Sequence | final HPLC purity |
| --- | --- |
| ACDTATCVTHRLAGLLSRSGGVVKSNFVPTNVGSKAF-NH2 (ACDTATCVTHRLAGLLSRSGGVVKSNFVPTNVGSKAF; cyclised or stapled) | 98% |
| ACDTATCVTHRLADLLSRSGGVVKSNFVPTNVGSKAF-NH2 (ACDTATCVTHRLADLLSRSGGVVKSNFVPTNVGSKAF; cyclised or stapled) | 99% |
| ACNTATCVTHRLAGLLSRSGGVVKSNFVPTNVGSKAF-NH2 (ACNTATCVTHRLAGLLSRSGGVVKSNFVPTNVGSKAF; cyclised or stapled) | 96% |
